The test system of data set [1] is GST-bZIP72 (unphosphorylated) (Oryza sativa ssp. japonica cv Nipponbare). The experiment in a line: EMSA. The following applies: Beyotime EMSA/gel-shift binding buffer (composition not given), 25 C, 20 min preincubation then 20 min with 20 fmol biotin probe, 6% acrylamide gel, recombinant protein, protein details: GST (N-term, pGEX-4T-1), label: biotin.
Data set [2] has as its target p-GST-bZIP72 (phosphorylated) (Oryza sativa ssp. japonica cv Nipponbare) (UniProt Q67TQ5). Description: EMSA. The following applies: Beyotime EMSA/gel-shift binding buffer (composition not given), 25 C, 20 min preincubation then 20 min with 20 fmol biotin probe, 6% acrylamide gel, recombinant protein, protein details: GST (N-term, pGEX-4T-1), label: biotin.
Data set [3] shares this target. Description: competition with a labelled probe. The conditions noted are these: 50- to 200-fold excess unlabeled probe, dose-dependent; Beyotime EMSA/gel-shift binding buffer (composition not given), 25 C, 20 min preincubation then 20 min with 20 fmol biotin probe; 6% acrylamide gel; recombinant protein; protein details: GST (N-term, pGEX-4T-1).

By UniProt entry, the sequences of proteins in these tests, tags left out.
UniProt Q67TQ5, entry or part of it: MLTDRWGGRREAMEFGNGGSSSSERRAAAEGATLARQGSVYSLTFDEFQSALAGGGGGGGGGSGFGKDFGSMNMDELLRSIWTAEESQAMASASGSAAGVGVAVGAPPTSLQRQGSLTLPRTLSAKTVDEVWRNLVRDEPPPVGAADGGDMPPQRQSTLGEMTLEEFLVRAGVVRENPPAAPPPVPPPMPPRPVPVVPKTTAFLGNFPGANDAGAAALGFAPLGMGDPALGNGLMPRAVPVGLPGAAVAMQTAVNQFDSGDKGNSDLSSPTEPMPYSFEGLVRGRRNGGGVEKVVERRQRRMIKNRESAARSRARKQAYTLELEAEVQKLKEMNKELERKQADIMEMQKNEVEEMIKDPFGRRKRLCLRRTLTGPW

Here are results for eight sequences from publication PMC7689938, “Abscisic acid promotes jasmonic acid biosynthesis via a ‘SAPK10‐bZIP72‐AOC’ pathway to synergistically inhibit seed germination in rice (Oryza sativa)” (The New Phytologist, 2020).

Construct, isoform or probe ends are uncertain for at least one entry. For part of these data: Negatives hold for the conditions tested. For part of these data: A weaker result is weaker than the reference pair of the same experiment. For part of these data: At least one verdict rests on a figure or table, not on a statement of the authors.

Turning to “CGGTGGCTTTCCGGTGGCCCGGCGATGGGCGCGCACGTGGGGAAGATGGGTGCAGACTCC (double strand) [AOS1 promoter probe]”, the binding result in data set [1] (unphosphorylated) is listed as “no binding”.

Take “CTCGTAACAGCCCCGGTGTTACACGTGCTCTAAGAGAGATTAATTAAATCGATAAGCTACCAGAGGTTTAGTTTTCCACGTGTTAATTAGATTGGAAAGC (double strand) [GA20ox2 promoter probe]”: the binding result in data set [1] is on record as “binds”.

With “GAGTCCACGGCCATGAGCTTAGCTTGTCATGCACGTAGCTTAATTAGGCCCGGAACTTCC (double strand) [LOX1 promoter probe]”, in data set [1] (unphosphorylated), the binding result is “no binding”.

For “GGGAAATTTTGGGGGAGAGAGAGAGCAAACGGGCAGCAGGGGTAGTGCGCGTCCCGCACT (double strand) [AOC P1 mutant CaaacG]”, the binding result in data set [2] (binding compromised) was “binds more weakly”.

On to “GGGAAATTTTGGGGGAGAGAGAGAGCACGAAGGCAGCAGGGGTAGTGCGCGTCCCGCACT (double strand) [AOC P1 mutant CACGaa]”, for which, in data set [2] (binding compromised), the binding result is “binds more weakly”.

As for “GGGAAATTTTGGGGGAGAGAGAGAGCACGTAGGCAGCAGGGGTAGTGCGCGTCCCGCACT (double strand) [AOC P1 mutant CACGTa]”, the binding result in data set [2] (binding compromised) was “binds more weakly”.

For the sequence “GGGAAATTTTGGGGGAGAGAGAGAGCACGTGGGCAGCAGGGGTAGTGCGCGTCCCGCACT (double strand) [AOC P1 unlabeled competitor]”, the binding result in data set [3] is given as “binds”.

Turning to “GGGAAATTTTGGGGGAGAGAGAGAGCACGTGGGCAGCAGGGGTAGTGCGCGTCCCGCACT (double strand) [AOC promoter probe P1 (G-box CACGTG)]”, the binding result in data set [1] (unphosphorylated) is “no binding”; in data set [2] (bZIP72 phosphorylated by SAPK10), “binds”.
